According to patent US7935848B2, “Butone derivatives useful as cooling agents” (Givaudan S.A., priority 2007, dated 2011):

Experiment: Cooling intensity: panelists taste aqueous solutions, compared with menthol at 2 ppm
Assay type: in vivo, human
Details: aqueous solution at the stated concentration

Odor, None:
CCCC(=O)[C@@H]1C[C@H](C)CC[C@H]1C(C)C [Example 1, 1-((1R,2S,5R)-2-isopropyl-5-methylcyclohexyl)butan-1-one]
CC(C)[C@@H]1CC[C@@H](C)C[C@H]1C(=O)CCCc1ccccc1 [Example 2, 1-((1R,2S,5R)-2-isopropyl-5-methylcyclohexyl)-4-phenylbutan-1-one]
CC(C)[C@@H]1CC[C@@H](C)C[C@H]1C(=O)CCCc1ccccn1 [Example 3, 1-((1R,2S,5R)-2-isopropyl-5-methylcyclohexyl)-4-(pyridin-2-yl)butan-1-one]
CC(C)C(C)(C(=O)CCCc1ccccc1)C(C)C [Example 4, 5-isopropyl-5,6-dimethyl-1-phenylheptan-4-one]
CCNC(=O)C1CC(C)CCC1C(C)C (stereo not drawn) [WS-3, N-ethyl p-menthanecarboxamide, reference compound]

Odor, Minty:
CC(C)[C@@H]1CC[C@@H](C)C[C@H]1O [l-Menthol, reference compound]
